The record followed here is PMC10675892.

Results are given in words; binding and its absence hold for the method and conditions named. In cells and extracts the contact can be indirect. Some results given as binding are weak or reduced against the parent protein; the word gives no strength.

This test concerns the target Programmed cell death 1 ligand 1 (human (endogenous in T24 and UMUC3)) (UniProt Q9NZQ7). As to the kind of experiment: co-IP; lysates of T24 and UMUC3 cells in IP lysis buffer with proteinase and phosphatase inhibitors and PMSF; antibodies and protein A/G magnetic beads overnight at 4 °C; washed at least three times; western blot; PDL1-P62 also after CXCL12 (50 ng/ml, 6 h). A general note: A western blot detects proteins with antibodies after separation by electrophoresis.

For “Sequestosome-1 (from UniProt Q13501 1-440)”, the binding result is “binds”.
